# In PubChem BioAssay AID540275 (National Center for Advancing Translational Sciences (NCATS), 2011):
# Protein sequences, listed by entry. Tags and fused reporters are not part of them.
# UniProt Q8NER1, whole entry, looked up: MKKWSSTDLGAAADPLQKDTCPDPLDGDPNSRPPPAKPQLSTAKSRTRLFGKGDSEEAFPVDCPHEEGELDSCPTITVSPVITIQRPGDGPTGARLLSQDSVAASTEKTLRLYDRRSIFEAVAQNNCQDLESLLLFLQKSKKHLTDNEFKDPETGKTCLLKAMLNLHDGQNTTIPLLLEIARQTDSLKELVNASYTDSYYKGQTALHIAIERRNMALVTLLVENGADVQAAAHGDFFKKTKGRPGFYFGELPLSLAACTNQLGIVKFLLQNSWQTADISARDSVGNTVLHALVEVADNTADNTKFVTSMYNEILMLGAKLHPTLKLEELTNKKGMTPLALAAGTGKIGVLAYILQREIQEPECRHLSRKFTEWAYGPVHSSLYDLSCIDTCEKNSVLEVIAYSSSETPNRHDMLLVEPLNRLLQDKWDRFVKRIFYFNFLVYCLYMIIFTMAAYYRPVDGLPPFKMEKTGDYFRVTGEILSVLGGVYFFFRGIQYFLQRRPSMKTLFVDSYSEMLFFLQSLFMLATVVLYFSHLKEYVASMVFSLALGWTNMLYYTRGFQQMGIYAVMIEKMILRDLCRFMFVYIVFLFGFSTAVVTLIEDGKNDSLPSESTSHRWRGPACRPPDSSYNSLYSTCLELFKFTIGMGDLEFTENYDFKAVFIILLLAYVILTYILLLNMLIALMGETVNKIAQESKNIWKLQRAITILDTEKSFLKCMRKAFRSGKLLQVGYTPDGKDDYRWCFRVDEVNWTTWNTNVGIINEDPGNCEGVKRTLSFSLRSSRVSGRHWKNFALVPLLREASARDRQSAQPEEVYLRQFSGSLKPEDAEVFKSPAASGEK
# The campaign covered roughly 320,000 compounds. About 620 (0.19%) were called active. Inconclusive means that the source gave no clear call. Such entries were picked first, then a sample of the others. Rule as the data show it: active = activation above about 80%; inconclusive = between about 30% and that limit; inactive = weaker than that.
# Target: Transient receptor potential cation channel subfamily V member 1 (Homo sapiens) (UniProt Q8NER1)
# Experiment: HTS Assay for Compounds that Act as Agonists of the Vanilloid Receptor 1; also: 0% is about no effect
# Conditions: TRPV1-expressing cells, Fluo-8 calcium influx, agonist mode; at 8.33 µM, active compounds read high
# Procedure, shortened: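 Cells expressing TRPV1 were dye-loaded with Fluo-8 and read kinetically: 10 s baseline, 3 min after compound (agonist portion), then 2 min after EC20 capsaicin (allosteric enhancer portion). Calcium-bound dye fluorescence at 480/520 nm.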
row,Structure (SMILES),activation
1,O=C(NCC1CCCO1)c1cc(Br)c(Br)s1 (centres undefined),inconclusive: 35.9%
2,O=C(c1cc(-c2ccc(Cl)cc2)n(-c2ccc(Cl)c(Cl)c2)n1)N1CCOCC1,inconclusive: 54%
3,CCc1cccc2sc(N3CCN(C(=O)c4ccc([N+](=O)[O-])o4)CC3)nc12,inconclusive: 41.2%
4,Cc1cccc(NC(=O)N2CCC(c3nc4ccccc4o3)CC2)c1,inconclusive: 59.2%
5,CN(Cc1ccc(Cl)cc1Cl)C(=O)CNC(=O)c1ccc2c(c1)OCO2,inconclusive: 42.5%
6,COc1cc(C(=O)Nc2ccccc2NC(=O)c2cc(OC)c(OC)c(OC)c2)cc(OC)c1OC,inconclusive: 32.5%
7,COc1ccccc1N1CCN(Cc2ccc(C(=O)O)cc2)CC1,inconclusive: 41.8%
8,COc1ccc(Cl)cc1C(=O)Nc1ccccc1N1CCN(C(=O)C(C)C)CC1,inactive: 4.29%
9,O=[N+]([O-])c1ccc(N2CCOCC2)cc1O,inactive: -2.01%
10,O=C(Nc1ccc(F)cc1)OCCOc1ccc([N+](=O)[O-])cc1,inconclusive: 53.7%
11,O=C(Nc1cccc(Cl)c1)C1C2CCC3C(CCC21)C3(Cl)Cl (centres undefined),inconclusive: 33.7%
12,CCCn1c(SCC(=O)Nc2ccc3c(c2)CCC3)n[nH]c1=O,inconclusive: 45.8%
13,CC1CC(C)CN(C(=O)c2cc3ccccc3o2)C1 (centres undefined),inconclusive: 59.9%
14,COC(=O)CCSc1nc(N2CCOCC2)c2c(c1C#N)CC(C)(C)OC2,inconclusive: 56.5%
15,O=C(Oc1oc(-c2ccco2)nc1C=Nc1ccc(Cl)cc1)c1ccco1,inconclusive: 44.4%
16,Cn1nccc1C(=O)NC1CCCc2c1cnn2-c1ccc(F)cc1F (centres undefined),inconclusive: 39.1%
17,O=C(/C(=C/c1ccc(Cl)cc1)c1nc2ccccc2[nH]1)c1ccccc1,inconclusive: 43.7%
18,COc1ccc(CCNC(=O)CCSCc2ccccc2F)cc1OC,inconclusive: 39.7%
19,COc1ccc(CCNC(=O)c2ccccc2)cc1,inconclusive: 54.1%
20,Cc1ccc(OCC(=O)Nc2ccccc2C(=O)NC2CC2)cc1C,inconclusive: 30.9%

row,Structure (SMILES),activation
1,CC(C)OC(=O)c1ccc(NC(=O)c2ccccc2)cc1,inconclusive: 70.2%
2,Cc1ccc2c(c1)c1c3n2CCN(C(=O)C2CC2)C3CCC1 (centres undefined),inconclusive: 57.9%
3,CN(CC1CCN(CCc2cccc(C(F)(F)F)c2)CC1)C(=O)c1ccccc1,inactive: 0.323%
4,COc1ccc2nc(NC(=O)c3ccccc3F)sc2c1,inconclusive: 43.3%
5,C=CCN1N=C(c2ccc(Cl)s2)CSC1=O,inconclusive: 30.8%
6,CC(C)c1onc(C(=O)Nc2cccc(Cl)c2)c1[N+](=O)[O-],inconclusive: 41.1%
7,Cc1ccc(NC(=S)N2CCN(S(=O)(=O)c3ccccc3)CC2)cc1,inconclusive: 30.5%
8,O=S(=O)(Nc1ccc2c3c(cccc13)CC2)c1ccc(F)cc1,inconclusive: 31.8%
9,CC(C)(C)C1CCC(=O)N(CCSc2ccccc2)CC1 (centres undefined),inconclusive: 64.4%
10,COc1ccccc1N(C(=O)NCc1ccccc1)C1=NCC(C)S1 (centres undefined),inconclusive: 32.3%
11,COC(=O)c1ccc(NC(=O)c2ccc3nccnc3c2)cc1,inconclusive: 31%
12,O=C(CCC(=O)N1CCN(c2ccc(F)cc2)CC1)c1ccc(F)cc1,inconclusive: 60.3%
13,Clc1ccc(-c2nnc(N3CCOCC3)o2)cc1,inconclusive: 47.3%
14,Cc1cc(C(=O)COc2cccnc2[N+](=O)[O-])c(C)n1-c1ccccc1F,inconclusive: 32.3%
15,CCOC(=O)C1=NN(C(=O)Cc2ccccc2)C(O)(C(C)(C)C)C1 (centres undefined),inconclusive: 35.8%
16,COc1ccc(C2c3c(-c4ccccc4O)n[nH]c3C(=O)N2CCc2ccc(OC)c(OC)c2)cc1 (centres undefined),inactive: 4.48%
17,O=C(Cn1cc([N+](=O)[O-])nc1[N+](=O)[O-])N1CCN(c2ccccc2)CC1,inconclusive: 42.5%
18,CCN(C(=O)c1cc2c(=O)n3ccccc3nc2n1C)C1CCCCC1,inconclusive: 51.2%
19,CCN(CC(=O)Nc1ccccc1OC)CC(=O)Nc1c(Cl)ccc(C)c1Cl,inactive: 3.24%
20,O=C(N/N=C/c1c(O)n(-c2ccccc2Cl)c(=O)c2ccccc12)c1cccnc1,inactive: 7.53%

# A draw from above in order of formula weight, smallest number first:
row,Structure (SMILES),activation
9,O=[N+]([O-])c1ccc(N2CCOCC2)cc1O,inactive: -2.01%
19,COc1ccc(CCNC(=O)c2ccccc2)cc1,inconclusive: 54.1%
1,CC(C)OC(=O)c1ccc(NC(=O)c2ccccc2)cc1,inconclusive: 70.2%
12,O=C(CCC(=O)N1CCN(c2ccc(F)cc2)CC1)c1ccc(F)cc1,inconclusive: 60.3%
17,O=C(/C(=C/c1ccc(Cl)cc1)c1nc2ccccc2[nH]1)c1ccccc1,inconclusive: 43.7%

# Following part.

row,Structure (SMILES),activation
1,O=C(CCNC(=O)C1CCN(S(=O)(=O)c2ccc(F)cc2)CC1)NCc1ccc(Cl)cc1,inactive: 1.76%
2,O=C1c2cccc(OCc3ccc(F)cc3)c2CCN1Cc1ccc(F)cc1,inconclusive: 37.8%
3,Cc1nc(NS(=O)(=O)c2cccc([N+](=O)[O-])c2)sc1C(C)(C)C,inconclusive: 33.9%
4,COc1ccc(N2CCN(C(=O)Cc3ccc(OC)c(OC)c3)CC2)cc1,inconclusive: 48.5%
5,Cc1ccc2nc(-c3ccncc3)c(NC3CCCCC3)n2c1,inconclusive: 38.2%
6,COc1ccccc1CNC(=O)COC(=O)c1n[nH]c2ccccc12,inactive: 0.0439%
7,COc1ccc(C(C)C)cc1S(=O)(=O)N1CCN(c2ccccc2)CC1,inconclusive: 35.6%
8,CC(CC(=O)Nc1ccc(C(N)=O)cc1)c1ccccc1 (centres undefined),inconclusive: 38.3%
9,C=CCSc1nc(N)c(C(=O)Nc2ccccc2)cc1C#N,inconclusive: 43.9%
10,Cc1ccc(OCCCC(=O)NC(C)c2ccccc2)cc1 (centres undefined),inconclusive: 75.8%
11,Cc1cc(C(=O)Nc2nc3c(s2)CCCC3)cs1,inconclusive: 74.6%
12,COc1ccc2c(=O)c(-c3ccc4c(c3)OCO4)coc2c1,inconclusive: 35.5%
13,CCNC(=S)N1CCC(C(=O)c2ccc(Cl)cc2)CC1,active: 80.6%
14,COc1cccc(NC(=O)NCCCSC2CCCCC2)c1,inconclusive: 69.6%
15,O=C(NCC12CC3CC(CC(C3)C1)C2)c1nn2cccnc2c1Cl,inconclusive: 37.4%
16,O=Cc1c(OCc2ccccc2)ccc2ccccc12,inconclusive: 35.7%
17,Cc1ccc(OC(C)C(=O)Nc2ccncc2)cc1 (centres undefined),inconclusive: 65.9%
18,O=C(NCCCl)c1ccc(OCc2ccccc2)cc1Cl,inactive: -0.367%
19,CC(NC(=S)Nc1ccccc1C(F)(F)F)C1CC2CCC1C2 (centres undefined),inconclusive: 68.6%
